Laboratory results taken from patent publication US20140005412A1, “TREATMENT OF ARTERIAL AGEING BY HMG CoA REDUCTASE INHIBITOR” (FARMICOM PHARMACEUTICAL COMPANY D.O.O., priority 2011, published 2014).
For at least one compound, name, drawing or mass did not settle the structure.

Test: Fasting blood laboratory analysis (cholesterol, triglycerides, glucose)
Type: in vivo, human
Conditions: Example 1 study, 10 mg, 30 days of treatment
Source text: All subjects underwent clinical examination, blood pressure measurements ([…] automated sphygmomanometer) and ultrasound measurement of flow-mediated dilatation of brachial artery (FMD), pulse-wave velocity (PWV) and β-stiffness of carotid artery at inclusion (0th day) and after 1 month (30th day) of the study. Fasting blood samples were taken at the beginning and at the end of the study for laboratory analysis. Blood glucose, electrolytes and cholesterol were obtained using the VITRO 5.1 FS Chemical system (Ortho Clinical Diagnostics, Inc.).

## CC(C)n1c(/C=C/C(O)CC(O)CC(=O)O)c(-c2ccc(F)cc2)c2ccccc21 (stereo not shown) [Fluvastatin sodium, fluvastatin sodium]
  Changes in plasma lipids: not accompanied by any changes in plasma lipids
